Results are given in words; binding and its absence hold for the method and conditions named. In cells and extracts the contact can be indirect. A yes stands for co-enrichment or nearness to the bait. Other partners may have been found.
molecular target: V5-epitope-tagged human KLF3 functional domain fragment, KLF3-FD-V5 (1–262) (human) (UniProt P57682); experiment: affinity purification with mass spectrometry; anti-V5 antibody and protein G Dynabeads on nuclear lysate (RIPA: 50 mM Tris pH 7.5, 150 mM NaCl, 1% NP-40) of HEK293 cells stably expressing KLF3-FD-V5; washes with 75 mM NaCl RIPA; duplicate experiments; proteins found in empty vector cells discarded

Sequences of proteins named here, by UniProt entry; tags and fusion partners are left off. Residues count along the entry.
UniProt P57682, residues 1-262: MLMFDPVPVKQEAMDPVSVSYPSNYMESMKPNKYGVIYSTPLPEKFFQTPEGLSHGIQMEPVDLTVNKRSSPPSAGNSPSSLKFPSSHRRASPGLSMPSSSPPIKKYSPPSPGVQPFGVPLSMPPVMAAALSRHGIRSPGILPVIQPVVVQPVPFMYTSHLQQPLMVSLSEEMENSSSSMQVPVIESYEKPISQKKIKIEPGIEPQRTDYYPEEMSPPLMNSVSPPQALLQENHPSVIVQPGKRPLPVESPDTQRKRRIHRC
UniProt Q92769: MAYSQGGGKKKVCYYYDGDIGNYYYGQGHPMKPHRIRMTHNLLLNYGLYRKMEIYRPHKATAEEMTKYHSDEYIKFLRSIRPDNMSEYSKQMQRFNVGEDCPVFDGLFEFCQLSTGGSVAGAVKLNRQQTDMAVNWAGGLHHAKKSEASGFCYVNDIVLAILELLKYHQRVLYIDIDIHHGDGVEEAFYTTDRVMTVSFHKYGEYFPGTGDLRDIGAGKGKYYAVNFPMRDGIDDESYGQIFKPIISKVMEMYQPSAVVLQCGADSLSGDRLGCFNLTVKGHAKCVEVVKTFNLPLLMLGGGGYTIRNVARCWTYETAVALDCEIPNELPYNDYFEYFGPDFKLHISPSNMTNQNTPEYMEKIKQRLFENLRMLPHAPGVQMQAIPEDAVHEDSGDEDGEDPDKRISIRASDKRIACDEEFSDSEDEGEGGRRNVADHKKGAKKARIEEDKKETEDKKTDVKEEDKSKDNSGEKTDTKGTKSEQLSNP
UniProt Q9P2R6: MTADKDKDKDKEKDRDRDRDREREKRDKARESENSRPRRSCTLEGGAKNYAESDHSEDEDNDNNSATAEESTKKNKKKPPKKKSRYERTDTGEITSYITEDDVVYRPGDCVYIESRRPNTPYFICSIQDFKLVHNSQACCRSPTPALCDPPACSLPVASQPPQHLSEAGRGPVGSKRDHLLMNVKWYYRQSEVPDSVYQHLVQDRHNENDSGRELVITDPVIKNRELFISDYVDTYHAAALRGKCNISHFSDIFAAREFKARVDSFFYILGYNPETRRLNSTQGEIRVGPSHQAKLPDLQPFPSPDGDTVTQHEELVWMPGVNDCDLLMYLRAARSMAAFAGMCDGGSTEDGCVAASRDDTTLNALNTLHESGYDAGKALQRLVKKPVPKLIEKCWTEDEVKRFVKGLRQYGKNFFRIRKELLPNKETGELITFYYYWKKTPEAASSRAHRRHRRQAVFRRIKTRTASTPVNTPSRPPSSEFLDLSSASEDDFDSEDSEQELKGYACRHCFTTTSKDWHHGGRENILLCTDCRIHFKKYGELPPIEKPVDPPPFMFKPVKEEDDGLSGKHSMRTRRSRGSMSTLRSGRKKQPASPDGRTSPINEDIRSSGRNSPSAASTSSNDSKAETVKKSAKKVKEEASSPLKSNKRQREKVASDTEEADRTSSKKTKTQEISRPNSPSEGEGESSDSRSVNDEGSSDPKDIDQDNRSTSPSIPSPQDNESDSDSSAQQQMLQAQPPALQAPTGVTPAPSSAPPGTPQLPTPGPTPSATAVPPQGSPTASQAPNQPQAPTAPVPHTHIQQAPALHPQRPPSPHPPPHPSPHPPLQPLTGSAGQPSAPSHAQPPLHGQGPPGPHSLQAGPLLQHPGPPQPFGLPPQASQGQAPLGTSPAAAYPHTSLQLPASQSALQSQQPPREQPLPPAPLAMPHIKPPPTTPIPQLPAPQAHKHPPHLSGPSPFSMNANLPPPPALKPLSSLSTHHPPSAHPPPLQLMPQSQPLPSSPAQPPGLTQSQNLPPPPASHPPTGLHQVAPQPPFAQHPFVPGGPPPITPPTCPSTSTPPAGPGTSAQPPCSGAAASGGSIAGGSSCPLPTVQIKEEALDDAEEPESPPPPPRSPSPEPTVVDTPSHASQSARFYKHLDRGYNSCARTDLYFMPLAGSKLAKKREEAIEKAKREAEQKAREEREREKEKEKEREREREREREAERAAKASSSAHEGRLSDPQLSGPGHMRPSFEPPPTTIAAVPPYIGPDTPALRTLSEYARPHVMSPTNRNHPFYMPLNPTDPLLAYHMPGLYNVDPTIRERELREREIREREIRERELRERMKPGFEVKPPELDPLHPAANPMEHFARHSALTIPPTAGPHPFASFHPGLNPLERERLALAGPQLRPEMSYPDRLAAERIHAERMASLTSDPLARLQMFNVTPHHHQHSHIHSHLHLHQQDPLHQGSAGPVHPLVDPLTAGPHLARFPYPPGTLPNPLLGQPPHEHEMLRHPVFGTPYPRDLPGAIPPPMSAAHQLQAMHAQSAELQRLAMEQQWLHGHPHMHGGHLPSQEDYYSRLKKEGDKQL

binding, binds:
CtBP2 (from UniProt P56545 1-445)
HDAC2 (from UniProt Q92769 1-488)
RERE (from UniProt Q9P2R6 1-1566)

Source: article PMC12481014
